From EP4579344A1, “THIOALKYLCOUMARIN PHOTOSENSITIZERS FOR PHOTOPOLYMERIZATION” (IGM Group B.V., priority 2023, dated 2025) come the findings set out here.

Series [1] in a line: Yellowness Index (YI) of cured coating, ASTM E313.
A short description of series [2]: Through-cure measurement in black offset ink. Conditions: 4 wt% PI-2 + 1 wt% photosensitizer.
Where [3] appears, read: photoinitiator alone, 4 wt%, no photosensitizer, Lamp 1: UV Hg lamp 120 W/cm.
The mark [4] stands for this setting: photoinitiator alone, 4 wt%, no photosensitizer, Lamp 3: UV LED 365 nm, 16 W/cm^2.
Setting [5] is: photoinitiator alone, 5 wt%, no photosensitizer, Lamp 1: UV Hg lamp 120 W/cm.
[6] abbreviates: photoinitiator alone, 5 wt%, no photosensitizer, Lamp 2: UV LED 395 nm, 16 W/cm^2.
Setting [7] is: photoinitiator alone, 5 wt%, no photosensitizer, Lamp 3: UV LED 365 nm, 16 W/cm^2.
[8] abbreviates: 4 wt% PI-1 + 1 wt% photosensitizer, Lamp 1: UV Hg lamp 120 W/cm, 24 hours after crosslinking.
[9] abbreviates: 4 wt% PI-1 + 1 wt% photosensitizer, Lamp 2: UV LED 395 nm, 16 W/cm^2, 24 hours after crosslinking.
Where [10] appears, read: 4 wt% PI-1 + 1 wt% photosensitizer, Lamp 3: UV LED 365 nm, 16 W/cm^2, 24 hours after crosslinking.
Where [11] appears, read: 4 wt% PI-2 + 1 wt% photosensitizer, Lamp 1: UV Hg lamp 120 W/cm, 24 hours after crosslinking.
Where [12] appears, read: 4 wt% PI-2 + 1 wt% photosensitizer, Lamp 2: UV LED 395 nm, 16 W/cm^2, 24 hours after crosslinking.
[13] abbreviates: 4 wt% PI-2 + 1 wt% photosensitizer, Lamp 3: UV LED 365 nm, 16 W/cm^2, 24 hours after crosslinking.
Setting [14] is: photoinitiator alone, 4 wt%, no photosensitizer, Lamp 2: UV LED 395 nm, 16 W/cm^2.

For the compound `CCOP(=O)(C(=O)c1c(C)cc(C)cc1C)c1ccccc1` (centres unmarked) [PI-4, ethyl(2,4,6-trimethylbenzoyl)-phenyl phosphinate, reference compound], the yellowness index is 0.30 in series [1] (setting [3]); 0.85 in series [1] (setting [4]); 0.57 in series [1] (setting [5]); 0.54 in series [1] (setting [6]); 0.74 in series [1] (setting [7]).

With `CCSc1cc(SCC)c2cc(-c3ccccc3)c(=O)oc2c1` [S12], the yellowness index is 3.67 in series [1] (setting [8]); 2.34 in series [1] (setting [9]); 2.88 in series [1] (setting [10]); 3.99 in series [1] (setting [11]); 1.91 in series [1] (setting [12]); 1.96 in series [1] (setting [13]).

Regarding `CCSc1ccc2ccc(=O)oc2c1` [S9], the yellowness index in series [1] (setting [8]) came to 2.17; in series [1] (setting [9]) it was 1.20; in series [1] (setting [10]), 1.67; in series [1] (setting [11]), 2.84; in series [1] (setting [12]), 0.90; in series [1] (setting [13]), 1.44.

For `CCCCCCCCP(=O)(C(=O)c1c(C)cc(C)cc1C)C(=O)c1c(C)cc(C)cc1C` [PI-2, bis(2,4,6-trimethylbenzoyl) octylphosphine oxide, reference compound], the yellowness index in series [1] (setting [3]) amounted to 2.20; in series [1] (setting [14]), 0.59; in series [1] (setting [4]) it was 0.60; in series [1] (setting [5]), 3.01; in series [1] (setting [6]), 1.22; in series [1] (setting [7]), 1.06.

Turning to `CN(C)CCSc1ccc2cc(-c3ccccc3)c(=O)oc2c1` [S4], the yellowness index is recorded as 3.77 in series [1] (setting [8]); 2.00 in series [1] (setting [9]); 2.22 in series [1] (setting [10]); 2.46 in series [1] (setting [11]); 1.24 in series [1] (setting [12]); 1.28 in series [1] (setting [13]).

`Cc1cc(=O)oc2cc(SCCO)ccc12` [S5]: the yellowness index in series [1] (setting [8]) is given as 2.70; in series [1] (setting [9]), 1.76; in series [1] (setting [10]), 1.85; in series [1] (setting [11]), 2.30; in series [1] (setting [12]), 0.65; in series [1] (setting [13]) it was 1.46.

Turning to `CCSc1ccc2cc(-c3ccncc3)c(=O)oc2c1` [S11], the yellowness index was determined as 24.19 in series [1] (setting [8]), 21.29 in series [1] (setting [9]) and 21.04 in series [1] (setting [10]).

`CCSc1ccc2cc(-c3ccccc3)c(=O)oc2c1` [S1]: the yellowness index is on record as 2.82 in series [1] (setting [8]); 1.74 in series [1] (setting [9]); 1.64 in series [1] (setting [10]); 2.82 in series [1] (setting [11]); 0.73 in series [1] (setting [12]); 0.57 in series [1] (setting [13]). Also, the yellowness index in series [1] (4 wt% PI-3 + 1 wt% photosensitizer, Lamp 1: UV Hg lamp 120 W/cm, 24 hours after crosslinking) is 0.45; in series [1] (4 wt% PI-3 + 1 wt% photosensitizer, Lamp 2: UV LED 395 nm, 16 W/cm^2, 24 hours after crosslinking), 0.93; in series [1] (4 wt% PI-3 + 1 wt% photosensitizer, Lamp 3: UV LED 365 nm, 16 W/cm^2, 24 hours after crosslinking), 1.00; in series [1] (4 wt% PI-4 + 1 wt% photosensitizer, Lamp 1: UV Hg lamp 120 W/cm, 24 hours after crosslinking), 0.59; in series [1] (4 wt% PI-4 + 1 wt% photosensitizer, Lamp 2: UV LED 395 nm, 16 W/cm^2, 24 hours after crosslinking), 1.10; in series [1] (4 wt% PI-4 + 1 wt% photosensitizer, Lamp 3: UV LED 365 nm, 16 W/cm^2, 24 hours after crosslinking) it was 0.78. The yellowness index is 2.42 in series [1] (4 wt% PI-5 + 1 wt% photosensitizer, Lamp 1: UV Hg lamp 120 W/cm, 24 hours after crosslinking); 1.62 in series [1] (4 wt% PI-5 + 1 wt% photosensitizer, Lamp 2: UV LED 395 nm, 16 W/cm^2, 24 hours after crosslinking); 1.02 in series [1] (4 wt% PI-5 + 1 wt% photosensitizer, Lamp 3: UV LED 365 nm, 16 W/cm^2, 24 hours after crosslinking). Moreover, the “maximum through cure speed” value turned out to be 30 m/min in series [2] (Lamp 1: UV Hg lamp 120 W/cm); 100 m/min in series [2] (Lamp 2: UV LED 395 nm, 16 W/cm^2); 95 m/min in series [2] (Lamp 3: UV LED 365 nm, 16 W/cm^2).

As for `CCOC(=O)c1cc2ccc(SCC)cc2oc1=O` [S10], the yellowness index in series [1] (setting [8]) is 2.59; in series [1] (setting [9]) it was 2.27; in series [1] (setting [10]) it was 2.24; in series [1] (setting [11]) it was 2.41; in series [1] (setting [12]) it was 0.61; in series [1] (setting [13]) it was 0.94.

Take `Cc1c(-c2ccccc2)c(=O)oc2cc(SCCO)ccc12` [S6]: the yellowness index in series [1] (setting [8]) worked out at 2.57; in series [1] (setting [9]), 1.31; in series [1] (setting [10]), 1.33; in series [1] (setting [11]), 2.13; in series [1] (setting [12]), 1.45; in series [1] (setting [13]) it was 1.17.

For `Cc1cc(C)c(C(=O)P(=O)(c2ccccc2)c2ccccc2)c(C)c1` [PI-3, 2,4,6-trimethylbenzoyl-diphenyl phosphine oxide, reference compound], the yellowness index in series [1] (setting [3]) turned out to be 0.67; in series [1] (setting [14]) it was 0.92; in series [1] (setting [4]), 0.93; in series [1] (setting [5]), 0.82; in series [1] (setting [6]), 0.62; in series [1] (setting [7]) it was 1.02.

For `CCCCC(CC)CSc1ccc2cc(-c3ccccc3)c(=O)oc2c1` (centres unmarked) [S2], the yellowness index in series [1] (setting [8]) is 2.45; in series [1] (setting [9]) it was 1.77; in series [1] (setting [10]), 1.83; in series [1] (setting [11]) it was 2.20; in series [1] (setting [12]) it was 1.40; in series [1] (setting [13]), 1.35.

On to `Cc1cc(C)c(C(=O)P(=O)(C(=O)c2c(C)cc(C)cc2C)c2ccccc2)c(C)c1` [PI-1, bis(2,4,6-trimethylbenzoyl) phenylphosphine oxide, reference compound], for which the yellowness index is on record as 2.84 in series [1] (setting [3]); 1.63 in series [1] (setting [14]); 2.04 in series [1] (setting [4]); 3.64 in series [1] (setting [5]); 2.68 in series [1] (setting [6]); 2.84 in series [1] (setting [7]).

With `CSc1ccc2cc(-c3nc4ccccc4n3C)c(=O)oc2c1` [S7], the yellowness index in series [1] (setting [8]) is 12.91; in series [1] (setting [9]), 10.75; in series [1] (setting [10]), 10.37; in series [1] (setting [11]) it was 7.35; in series [1] (setting [12]), 5.91; in series [1] (setting [13]), 6.31.

`COc1cccc(OC)c1C(=O)P(=O)(CC(C)CC(C)(C)C)C(=O)c1c(OC)cccc1OC` (centres unmarked) [PI-5, bis(2,6-dimethoxybenzoyl)-2,4,-trimethylpentylphsophine oxide, reference compound]: the yellowness index came out at 2.63 in series [1] (setting [3]); 2.19 in series [1] (setting [14]); 2.37 in series [1] (setting [4]); 2.93 in series [1] (setting [5]); 2.52 in series [1] (setting [6]); 2.33 in series [1] (setting [7]).

In the case of `CCSc1ccc(-c2cc3ccc(SCC)cc3oc2=O)cc1` [S3], the yellowness index is 2.28 in series [1] (setting [8]); 1.82 in series [1] (setting [9]); 1.81 in series [1] (setting [10]); 2.34 in series [1] (setting [11]); 1.58 in series [1] (setting [12]); 1.65 in series [1] (setting [13]).
